The values that follow come from publication PMC2932438 (Journal of pharmaceutical and biomedical analysis, 2010).

In one assay the test system is T98G glioma cell line. As to the kind of experiment: MTS proliferation assay. Type of assay: cell-based. Conditions: Homo sapiens, 48 h, read-out: IC50 values T98G cell line.
Another assay deals with ERRγ. The note with it: cited from earlier work.

pIC50, pKi: −log10 of the molar value.

Broadly, the pIC50 is −log10 of the IC50, conventionally taken in molar units. What is called pKi is −log10 of the Ki, conventionally taken in molar units. For the compound `CC/C(=C(\c1ccccc1)c1ccc(OCCN(C)C)cc1)c1ccccc1` [Tamoxifen], the pIC50 in the assay with T98G glioma cell line is 3.93. Further, the pKi on ERRγ was 6.06.
